Results taken from PMC9681887.
Results are given in words; binding and its absence hold for the method and conditions named. Binding seen in cells or lysates may run through a third protein. Some results given as binding are weak or reduced against the parent protein; the word gives no strength.

Biological target: RIPK3 (mouse (endogenous in MEFs)), Q9QZL0
Test: co-IP; necrosome from WT and SENP1-KD MEFs, immunoprecipitated with anti-RIPK3 antibodies (0.5% NP-40 lysis buffer, protein A/G agarose); immunoblot
Conditions: remark: other sources report otherwise

B1: RIPK1, Q60855 1-656 (protein)
chain: MQPDMSLDNIKMASSDLLEKTDLDSGGFGKVSLCYHRSHGFVILKKVYTGPNRAEYNEVLLEEGKMMHRLRHSRVVKLLGIIIEEGNYSLVMEYMEKGNLMHVLKTQIDVPLSLKGRIIVEAIEGMCYLHDKGVIHKDLKPENILVDRDFHIKIADLGVASFKTWSKLTKEKDNKQKEVSSTTKKNNGGTLYYMAPEHLNDINAKPTEKSDVYSFGIVLWAIFAKKEPYENVICTEQFVICIKSGNRPNVEEILEYCPREIISLMERCWQAIPEDRPTFLGIEEEFRPFYLSHFEEYVEEDVASLKKEYPDQSPVLQRMFSLQHDCVPLPPSRSNSEQPGSLHSSQGLQMGPVEESWFSSSPEYPQDENDRSVQAKLQEEASYHAFGIFAEKQTKPQPRQNEAYNREEERKRRVSHDPFAQQRARENIKSAGARGHSDPSTTSRGIAVQQLSWPATQTVWNNGLYNQHGFGTTGTGVWYPPNLSQMYSTYKTPVPETNIPGSTPTMPYFSGPVADDLIKYTIFNSSGIQIGNHNYMDVGLNSQPPNNTCKEESTSRHQAIFDNTTSLTDEHLNPIRENLGRQWKNCARKLGFTESQIDEIDHDYERDGLKEKVYQMLQKWLMREGTKGATVGKLAQALHQCCRIDLLNHLIRASQS
binding: binds
